From PMC11125359 (Pharmaceuticals, 2024) come the findings set out here.

The subject of the data set is human lung cancer (A549) cell line. Briefly: Cytotoxic activity, MTT assay, lung (A549). The following applies: IC50 on normal cells (WI-38)/IC50 on A549.

For the compound `O=C(Nc1ccccc1)c1c(Nc2ccccc2)n[nH]c1N=Cc1ccc(N2CCCCC2)cc1` [5a], the “Therapeutic Index (TI), Lung (A549)” value is reported as 6.41.
For `COc1ccc(Nc2n[nH]c(/N=C/c3ccc(N4CCCCC4)cc3)c2C(=O)Nc2ccc(C)cc2)cc1` [5e], the “Therapeutic Index (TI), Lung (A549)” value amounted to 13.57.
In the case of `COc1ccc(Nc2n[nH]c(N=Cc3ccc(N4CCCCC4)cc3)c2C(=O)Nc2ccc(Cl)cc2)cc1` [5f], the “Therapeutic Index (TI), Lung (A549)” value is listed as 8.15.
On to `COc1ccc(Nc2n[nH]c(/N=C/c3ccc(N4CCCCC4)cc3)c2C(=O)Nc2ccccc2)cc1` [5d], for which the “Therapeutic Index (TI), Lung (A549)” value came out at 14.83.
In the case of `COc1cccc2c1C(=O)c1c(O)c3c(c(O)c1C2=O)C[C@@](O)(C(=O)CO)C[C@@H]3O[C@H]1C[C@H](N)[C@H](O)[C@H](C)O1` [Doxorubicin, reference compound], the “Therapeutic Index (TI), Lung (A549)” value came to 8.36.
With `Cc1c(C=Nc2[nH]nc(Nc3ccccc3)c2C(=O)Nc2ccccc2)c(=O)n(-c2ccccc2)n1C` [7a], the “Therapeutic Index (TI), Lung (A549)” value was found to be 14.90.
As to `COc1ccc(Nc2n[nH]c(N=Cc3c(C)n(C)n(-c4ccccc4)c3=O)c2C(=O)Nc2ccc(Cl)cc2)cc1` [7f], the “Therapeutic Index (TI), Lung (A549)” value worked out at 9.73.
